42 sequences from article PMC7819943, “Rice protein-binding microarrays: a tool to detect cis-acting elements near promoter regions in rice” can be followed below.

Amino acid sequences for entries named in this document (tags omitted).
UniProt Q0JBA9, entry or part of it: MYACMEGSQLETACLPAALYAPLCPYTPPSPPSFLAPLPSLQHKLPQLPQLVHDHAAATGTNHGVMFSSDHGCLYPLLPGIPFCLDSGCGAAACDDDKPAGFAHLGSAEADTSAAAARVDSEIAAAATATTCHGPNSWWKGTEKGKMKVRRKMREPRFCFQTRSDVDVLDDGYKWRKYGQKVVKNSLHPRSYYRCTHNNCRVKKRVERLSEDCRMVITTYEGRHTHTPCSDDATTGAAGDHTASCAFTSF

The list shows a part of the results.

The target in the experiment is OsWRKY34 (Oryza sativa, UniProt Q0JBA9 1-250). Nature of the experiment: protein-binding microarray (RPBM); PBS, 2% BSA, 51.3 ng/ul salmon testes DNA, 50 uM zinc acetate, 200 nM TF, 25 C, 1 h; high values mean tight binding. The note with it: protein: recombinant; tags: N-terminal polyhistidine and DsRed monomer fusion (pET32a); label: CyDye5-dUTP incorporated in the synthesized complementary strand; 3' TTTTT single-stranded linker to array surface; dsDNA, one strand shown. The method, boiled down:
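Transcription factors were made in E. coli BL21-CodonPlus as N-terminal fusions to a polyhistidine tag and DsRed, then purified on Ni–NTA. After primer extension with Cy5-dUTP and blocking with 2% BSA, a custom Agilent array was exposed for 1 h at 25 °C to 200 nM protein in PBS, 2% BSA, salmon testes DNA and 50 µM zinc acetate. Washed arrays were scanned on an Axon 4000B, and the binding signal is per-feature fluorescence intensity in arbitrary units.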
Turning to “AAGAGACTTCTATATCTCTATATCCTTCTTATTTGCGTCCCGGAGTCACCTAGTGCAG”, the binding signal is 8080 fluorescence intensity (a.u.). Consider “TCATGGTTTAATTATTTCTCCCTCACTTCTTCCCAGCTTTCGGAGTCACCTAGTGCAG”, for which the binding signal is 9910 fluorescence intensity (a.u.). Then “GGGACTGAGATGATACTTGAGTATTTTTTTATTGACCCTTCGGAGTCACCTAGTGCAG”, with 9700 fluorescence intensity (a.u.). Under “GTGGCTAGTGGTGTGGGGTGGTGGTGCGAAATGACGAGACCGGAGTCACCTAGTGCAG” stands 12300 fluorescence intensity (a.u.); under “TCTTGCCTGCCTCATCTGCAACCGCCGTGCGCCGTGCGCGCGGAGTCACCTAGTGCAG”, 8280 fluorescence intensity (a.u.); under “GTGCAGCCATGGATATTCGTGTCTAACGTTTGACCGTTCGCGGAGTCACCTAGTGCAG”, 10100 fluorescence intensity (a.u.). Under “ATGCGCAAAAAGAAGACGACATCCTACTAACATTTTCTTTCGGAGTCACCTAGTGCAG” stands 9050 fluorescence intensity (a.u.). “GTTAGCACACAGACCATTATCTTTCTCTTGGTCATATATCCGGAGTCACCTAGTGCAG”: the binding signal is 8720 fluorescence intensity (a.u.).

As for “TTCCCCACCCTCACACCGCCGCCTACCACGCCGTCGTCATCGGAGTCACCTAGTGCAG”, the binding signal was 9910 fluorescence intensity (a.u.). Under “TTTTTGTGGTACAGTTTGTTGGACTCCGGGACAGGTGTCACGGAGTCACCTAGTGCAG” stands 11500 fluorescence intensity (a.u.); under “TTTACGTAGAAACTTTATTTAGCATCTTGTTCAGCATATACGGAGTCACCTAGTGCAG”, 8420 fluorescence intensity (a.u.).

As for “CTTCCTATCACCTGCCTCTCGTGTGGCCCACTTCCGGACCCGGAGTCACCTAGTGCAG”, the binding signal was 8200 fluorescence intensity (a.u.). Under “GCCGCGCCGCCGCTCGTCGTAGTTTCTCCCGCGCTGCTGCCGGAGTCACCTAGTGCAG” stands 8890 fluorescence intensity (a.u.); under “AGTTTTGACATTTCTAAATTTTGGTAGCGTTAAATGTATTCGGAGTCACCTAGTGCAG”, 9310 fluorescence intensity (a.u.); under “GCATTGCTTGGTAGCTCTTGATCTCCGCCGTCAACATTTGCGGAGTCACCTAGTGCAG”, 11100 fluorescence intensity (a.u.). Then “ACTGGATATACCGTCTGTTCCATTCCAAAATGCTCAAATGCGGAGTCACCTAGTGCAG”, with 8900 fluorescence intensity (a.u.); and “ATGGGGATTGATTCAGTTAGAGGGGATGAAAAAGTCGATGCGGAGTCACCTAGTGCAG”, with 9870 fluorescence intensity (a.u.).

“GTCCTTGTCACTGTTGTAGCTAGTCATGATTTTAGTTCCACGGAGTCACCTAGTGCAG”: the binding signal was 11000 fluorescence intensity (a.u.).

Turning to “GCTATGAAACGTATGTTTACTCATGGGTGGGGCAAGCTCTCGGAGTCACCTAGTGCAG”, the binding signal is 10400 fluorescence intensity (a.u.).

Regarding “TTGTTGTTTTTCGGTACTGTTGATTGAATTAGTGTTATGTCGGAGTCACCTAGTGCAG”, the binding signal was 8120 fluorescence intensity (a.u.).

Regarding “TATGCATACTTTTTTATCACTGTAGTTACTAGCTAAGATCCGGAGTCACCTAGTGCAG”, the binding signal is 9000 fluorescence intensity (a.u.).

For “ACATATCAAAACTTTTTTACACGTAAACTTTCAACTTTTTCGGAGTCACCTAGTGCAG”, the binding signal is 8260 fluorescence intensity (a.u.). Under “GCTGTTCCTCGCCCACGTCGCGCCCTTCTACCCGGACGACCGGAGTCACCTAGTGCAG” stands 8130 fluorescence intensity (a.u.). Then “TCGATCTGTTTCGCTTTGCTTCCGTCAGCCACCGAATTTGCGGAGTCACCTAGTGCAG”, with 10500 fluorescence intensity (a.u.). In the case of “AGTACTCTTCACTGTCTCCATGGAAGTTGTAGGCCTGTTGCGGAGTCACCTAGTGCAG”, the binding signal was 8650 fluorescence intensity (a.u.). With “GGCCGCACGCCGACCCAGCGCCTTCCGGCCTACGGTCTTCCGGAGTCACCTAGTGCAG”, the binding signal is 8240 fluorescence intensity (a.u.). Then “TCACTTGCCACATTATTTTTCATTTTAGGTTGCAGCTTATCGGAGTCACCTAGTGCAG”, with 13200 fluorescence intensity (a.u.); and “CGTACCTTTGACCCGTGCCCCTAGCTCCGTCCGTTAGCTTCGGAGTCACCTAGTGCAG”, with 8120 fluorescence intensity (a.u.); and “TCTACATAGCGCTGATCGATCAGGTTGATTGCTTTATATTCGGAGTCACCTAGTGCAG”, with 10400 fluorescence intensity (a.u.). Then “GGCCGTTTTCTAGCTGTCCTATTCATGGATATGATCAATTCGGAGTCACCTAGTGCAG”, with 8070 fluorescence intensity (a.u.).

As to “AATTTGTCGTGCTCTCTCCGCTCCCAGCCATTTGTCACCACGGAGTCACCTAGTGCAG”, the binding signal is 10100 fluorescence intensity (a.u.). Under “TACTGACCTGTGGGCATTCGTCACTCGAGCCCACTTAACACGGAGTCACCTAGTGCAG” stands 8240 fluorescence intensity (a.u.); under “AACACACATCCAACTTCCAGTCCCATCGATATATTTTTTTCGGAGTCACCTAGTGCAG”, 14700 fluorescence intensity (a.u.); under “TGTGAGAAAAAGTCAACGGCGTCATCTATTAAAAAACGGACGGAGTCACCTAGTGCAG”, 8450 fluorescence intensity (a.u.). As to “CGCCGTCGCTCGTCCTGTTGCTTCCGCCGCATCCATCCTGCGGAGTCACCTAGTGCAG”, the binding signal is 8680 fluorescence intensity (a.u.). Then “ACGCAACTTTTCATTTTTTATATTTGCATAATTTTTTTTACGGAGTCACCTAGTGCAG”, with 12100 fluorescence intensity (a.u.). Under “CACTCGTGGGGTACGTCACTGCAATACTGCATCCTCCATTCGGAGTCACCTAGTGCAG” stands 12900 fluorescence intensity (a.u.); under “GTGTTCTTTTTTCATTTCTGAAATTTACTTTTTCTAATTTCGGAGTCACCTAGTGCAG”, 8830 fluorescence intensity (a.u.); under “TTATTTGATGACTCGCTTCTCGTCCCACAGAAAATCTTCTCGGAGTCACCTAGTGCAG”, 10200 fluorescence intensity (a.u.). Then “CTCTTCTATACCCCTAAATTTTGTCTCAAAACTCTATATGCGGAGTCACCTAGTGCAG”, with 8320 fluorescence intensity (a.u.); and “GCTCCGACTCCCTGTTTCCTGGTCCTCTTTTACACCGGCTCGGAGTCACCTAGTGCAG”, with 15100 fluorescence intensity (a.u.); and “TGACGCCGTTGACTTTTTCTCACATGTTTGACTATTCGTCCGGAGTCACCTAGTGCAG”, with 49100 fluorescence intensity (a.u.).
